Laboratory results published in US11021687B2, “Production of differentiated enteroendocrine cells and insulin producing cells” (Massachusetts Institute of Technology, priority 2016, dated 2021).
For at least one compound, name, drawing or mass did not settle the structure.

System: gastrointestinal stem cells
Assay: Insulin / Nkx6.1 mRNA expression (qPCR), 3-stage conversion to insulin producing cells
Type: cell-based, mouse
Description: “mRNA Insulin Expression Assay” refers to an assay used to determine the relative insulin mRNA expression level of a cell population. For example, the assay can determine the insulin mRNA level expressed in a cell population treated to increase the expression of insulin in the cells, as compared to an untreated population of cells. In an exemplary mRNA Insulin Expression Assay, the cells were collected and the RNA is extracted from the cells using an RNA extraction kit (such as RNeasy Mini kit, Qiagen). The insulin expression level is then assessed by Quantitative real-time PCR using a one-step qPCR kit (such as QuantiTech Probe PCR kit, Qiagen) and Ins1 or Ins2 primers and probes (such as the commercially available TaqMan probe for mouse Ins1 and Ins2, Life Technologies). The relative insulin mRNA expression can be determined relative to a baseline or other marker, such as Hprt mRNA expression level or other baseline marker.
Organoids or differentiated cells were harvested and RNA was extracted using RNeasy Micro Kit (Qiagen) according to the manufacturer's instruction. Quantitative real-time PCR was performed with QuantiTect Probe PCR kit (Qiagen) using commercially available primers and TaqMan probes (Life Technologies). […]

| SMILES | expression of Nkx6.1 and insulin (added in Stages 2-3) | Insulin mRNA expression (FIG. 58) |
| --- | --- | --- |
| C[C@@H]1C[C@H]2[C@@H]3CCC4=CC(=O)C=C[C@]4(C)[C@@]3(F)[C@@H](O)C[C@]2(C)[C@@]1(O)C(=O)CO [Dexamethasone] | increased |  |
| C=C[C@@]1(C)CC(=O)[C@]2(O)[C@@]3(C)[C@@H](O)CCC(C)(C)[C@@H]3[C@H](O)[C@H](OC(C)=O)[C@@]2(C)O1 [Forskolin] |  | increased |
